Experimental data reported in patent US20180346525A1, “DIAGNOSTIC AND THERAPEUTIC QUORUM-SENSING-MANIPULATION MOLECULES THAT ARE TRACKABLE FOR HEALTH-CARE AND INDUSTRIAL SYSTEMS” (The Trustees of Princeton University, priority 2017, published 2018).
At least one compound was matched to its structure with a doubt left.

Tested on: AgrC receptors
Type: binding, Staphylococcus aureus
Conditions: reporter cells exposed to 100 nM for 30 min, then washed; FIGS. 7, 8A, 8B

Compound: O=C1OC2(c3ccc(O)cc3Oc3cc(O)ccc32)c2ccccc21 [Fluorescein]
- Binding to cells having AgrC+ receptors: did not bind
